The values below come from patent publication US7183411B2, “Naphthol, quinoline and isoquinoline-derived urea modulators of vanilloid VR1 receptor” (Janssen Pharmaceutica N.V., priority 2002, dated 2007).

Amino acid sequences for entries named in this document (tags omitted).
UniProt Q8NER1, whole entry: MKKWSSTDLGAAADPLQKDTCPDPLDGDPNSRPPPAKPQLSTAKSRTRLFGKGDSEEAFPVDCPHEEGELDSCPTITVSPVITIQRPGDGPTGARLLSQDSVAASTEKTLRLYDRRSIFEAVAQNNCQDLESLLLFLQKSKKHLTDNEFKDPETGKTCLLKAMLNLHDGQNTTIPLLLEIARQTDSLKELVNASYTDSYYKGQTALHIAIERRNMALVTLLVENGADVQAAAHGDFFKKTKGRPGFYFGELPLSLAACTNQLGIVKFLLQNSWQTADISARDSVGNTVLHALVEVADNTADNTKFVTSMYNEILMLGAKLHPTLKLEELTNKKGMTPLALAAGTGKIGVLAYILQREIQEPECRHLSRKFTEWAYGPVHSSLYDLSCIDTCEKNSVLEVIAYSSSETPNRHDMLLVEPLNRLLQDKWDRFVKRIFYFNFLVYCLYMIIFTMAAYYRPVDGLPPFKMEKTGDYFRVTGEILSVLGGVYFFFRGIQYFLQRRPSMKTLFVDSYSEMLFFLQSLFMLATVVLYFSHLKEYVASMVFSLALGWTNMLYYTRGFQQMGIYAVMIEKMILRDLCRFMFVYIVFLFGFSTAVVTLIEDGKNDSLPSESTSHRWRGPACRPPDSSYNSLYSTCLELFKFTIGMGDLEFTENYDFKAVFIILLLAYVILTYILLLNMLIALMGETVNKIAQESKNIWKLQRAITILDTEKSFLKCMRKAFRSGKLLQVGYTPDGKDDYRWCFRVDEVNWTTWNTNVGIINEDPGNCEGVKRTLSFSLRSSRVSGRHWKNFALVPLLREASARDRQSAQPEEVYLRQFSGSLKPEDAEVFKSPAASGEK

The target of the test is human VR1 vanilloid receptors (Homo sapiens, UniProt Q8NER1). Kind of test: [3H] RTX binding assay, hVR1 membranes from transfected HEK293 cells. The settings on record: for Ki: read-out: Receptor binding Ki, human VR1; for Receptor binding % Inhibition @ 1 μM: human VR1, 1 μM compound.

The structures given here were assigned with low confidence; some may be wrong.

One may read the Ki as the dissociation constant of the complex between target and ligand, obtained from inhibition or displacement. Take `O=C(NCc1ccc(C(F)(F)F)cc1)Nc1cnc2ccccc2c1`: the Ki is 786 nM.
For `CCCCCN(C)c1ccc(CNC(=O)Nc2cnc3ccccc3c2)cc1`, the Ki worked out at 211 nM.
As to `O=C(NCc1ccc(Cl)c(Cl)c1)Nc1cnc2ccccc2c1`, the “Receptor binding % Inhibition @ 1 μM” value turned out to be 23%.
For the molecule `O=C(NCCc1ccc(Cl)c(Cl)c1)Nc1cnc2ccccc2c1`, the “Receptor binding % Inhibition @ 1 μM” value was found to be 37%.
For the molecule `O=C(Nc1cccc(C(F)(F)F)c1)Nc1cnc2ccccc2c1`, the “Receptor binding % Inhibition @ 1 μM” value was determined as 1%.
